Results deposited as PubChem BioAssay AID1508597 (Cure First, 2020)
This is a random part of the about 2,100 reagents, under one of the conditions tested. 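Calls flag viability under 80% in either arm, not effects specific to rucaparib; the reference for percent is not stated.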 Entries without a mark were called inactive. A reagent listed more than once was tested more than once; the source does not tell the runs apart. The record does not give: the 100% reference.

Test: 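Genes whose silencing sensitises or protects ovarian cancer cells against rucaparib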 (primary screen)
Cell system: human ovarian carcinoma lines grown from tumours: OCI-P5x (papillary serous) and OCI-C5x (clear cell)
Knock-down reagent: siRNA pool against human genes, 1.25 pmol siRNA per well
Timing: 72 h or 96 h, depending on the cell culture
Conditions: rucaparib 20 µM (about IC30) or vehicle, present until read-out
Rucaparib or vehicle: Vehicle
Cell line: OCI-C5x (clear cell)
Detection: 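ATP luminescence measured at 72 or 96 h according to the culture, then normalised and expressed as percent viability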
Scale: viability, normalised: higher = more viable cells remaining
Rule for the call: 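a well counts as a hit if its normalised viability is under 80 percent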
Calls: active = viability under 80%; inactive = viability 80% or more

no.	gene knocked down	technical replicate	viability, normalised (%)
1	RRP8	1	33.8 (active)
2	RRP8	2	40.1 (active)
3	RRP8	3	35.7 (active)
4	GCKR	1	37.8 (active)
5	GCKR	2	35.5 (active)
6	GCKR	3	37.1 (active)
7	CSNK2A1	1	25.6 (active)
8	CSNK2A1	1	62.7 (active)
9	CSNK2A1	2	40.5 (active)
10	CSNK2A1	2	60 (active)
11	CSNK2A1	3	37.9 (active)
12	CSNK2A1	3	39.9 (active)
13	NBL1	1	53.7 (active)
14	NBL1	2	71 (active)
15	NBL1	3	51.8 (active)
16	DDR1	1	39.4 (active)
17	DDR1	2	50 (active)
18	DDR1	3	42.4 (active)
19	MED8	1	47.4 (active)
20	MED8	2	45.5 (active)
21	MED8	3	48.2 (active)

Not a retest: 3 of the entries above.
no.	gene knocked down	technical replicate	viability, normalised (%)
19	MED8	1	47.4 (active)
20	MED8	2	45.5 (active)
21	MED8	3	48.2 (active)

Additional results follow.
no.	gene knocked down	technical replicate	viability, normalised (%)
22	AANAT	1	57.5 (active)
23	AANAT	2	41.5 (active)
24	AANAT	3	38.3 (active)
25	CDK4	1	50.7 (active)
26	CDK4	2	50.8 (active)
27	CDK4	3	59.1 (active)
28	NDUFA10	1	88.8
29	NDUFA10	2	57 (active)
30	NDUFA10	3	50.9 (active)
31	LRRK1	1	37.1 (active)
32	LRRK1	2	41.9 (active)
33	LRRK1	3	42.1 (active)
34	TARBP2	1	43.5 (active)
35	TARBP2	2	47.1 (active)
36	TARBP2	3	53.5 (active)
37	USB1	1	57.8 (active)
38	USB1	2	53.7 (active)
39	USB1	3	51.4 (active)
